# Measured values reported in the supplement of paper PMC3334620.
# Whole data set: some 33,000 sequences, median “E-score (-0.5 to 0.5)” near -0.016, cut for the highest 2% near 0.3. This is one part of the list.
# Biological target: T1, Yer184c (UniProt P39961)
# T1 sequence: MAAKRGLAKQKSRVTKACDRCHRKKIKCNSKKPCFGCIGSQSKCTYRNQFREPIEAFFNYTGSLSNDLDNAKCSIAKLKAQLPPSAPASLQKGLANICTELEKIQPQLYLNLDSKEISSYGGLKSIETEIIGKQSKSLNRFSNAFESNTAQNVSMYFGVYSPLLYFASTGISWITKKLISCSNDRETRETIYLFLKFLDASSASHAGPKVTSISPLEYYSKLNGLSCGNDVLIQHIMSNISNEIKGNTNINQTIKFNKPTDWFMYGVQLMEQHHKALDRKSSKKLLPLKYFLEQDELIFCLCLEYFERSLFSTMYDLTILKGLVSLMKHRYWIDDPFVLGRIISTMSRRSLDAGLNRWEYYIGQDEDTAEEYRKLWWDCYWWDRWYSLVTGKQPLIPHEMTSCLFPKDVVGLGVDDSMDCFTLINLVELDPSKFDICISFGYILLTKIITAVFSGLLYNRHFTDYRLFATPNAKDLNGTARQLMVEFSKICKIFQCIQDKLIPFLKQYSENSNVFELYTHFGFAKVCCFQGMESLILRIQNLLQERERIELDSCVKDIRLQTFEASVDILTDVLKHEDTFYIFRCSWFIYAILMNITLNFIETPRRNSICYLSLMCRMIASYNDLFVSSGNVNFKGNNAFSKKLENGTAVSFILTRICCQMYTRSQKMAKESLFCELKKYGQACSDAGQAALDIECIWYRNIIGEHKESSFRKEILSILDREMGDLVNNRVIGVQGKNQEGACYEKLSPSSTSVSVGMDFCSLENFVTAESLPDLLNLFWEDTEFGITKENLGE
# Assay: PBM E-score (8-mer binding enrichment) (E-score (-0.5 to 0.5)); higher = stronger / more preferred TF binding
# Conditions: protein concentration: 100 nM; construct: GST-full length
# Outline: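 Detection of bound protein used fluorescent anti-GST, with scans normalised by masliner. The proteins were GST-tagged yeast transcription factors applied at about 100-200 nM to universal all-10-mer Agilent arrays made double-stranded by primer extension. Each ungapped eight-base word, pooled with its reverse complement, was scored with an E-score from the Universal PBM Analysis Suite.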
row,Sequence,PBM E-score
1,ATAGAGGC,-0.187
2,CCATATGA,-0.127
3,ATTCAGGA,0.0123
4,CTTCACGA,-0.182
5,AGTATCGC,-0.109
6,GCATGGTA,-0.0508
7,AAAGAACT,0.102
8,CTTTTCGA,0.0568
9,GTATCGAA,0.0942
10,TATTCGCA,0.0122
11,CGAACAAA,0.285
12,ATGTCACG,-0.101
13,CGATGATC,-0.0994
14,AGGGAGGC,-0.301
15,ACTCGCGG,0.192
16,AAGACGAG,-0.109
17,GAGGCAAA,0.0232
18,GACGGTGC,-0.132
19,AGCGTTGA,-0.0726
20,GTGGCCAC,-0.0584
21,ATGAGGTG,-0.235
22,TGGACACA,-0.0238
23,GCAGGGTA,-0.112
24,AATCCCTG,-0.233

row,Sequence,PBM E-score
1,ATCGCTCG,-0.0215
2,ACGATAAC,0.0512
3,ACTACACT,-0.0405
4,ACTGGAAC,0.0557
5,TTTATAAA,0.348
6,AGTCGATG,-0.0896
7,AAGCCAGT,-0.229
8,CAGACCAC,-0.149
9,TACCGAGA,0.255
10,AAGCCCCG,-0.138
11,AATTTGAC,0.166
12,GACTCAGA,-0.128
13,TTGAGCAA,0.0285
14,GCAGAGAC,-0.274
15,GAGTACGC,-0.0395
16,ACTGCATC,-0.0841
17,CGGTTAAA,0.205
18,GAGGTTGA,-0.0617
19,ATTATAAA,0.249
20,CCTAGCGA,-0.239
21,TCCGTAGA,0.204
22,TAAACCTA,0.0218
23,CAGGCTTA,-0.0831
24,CTGGGTAC,-0.114

# An excerpt of these results, tab-delimited:
row	Sequence	PBM E-score
2	CCATATGA	-0.127
4	CTTCACGA	-0.182
6	GCATGGTA	-0.0508
7	AAAGAACT	0.102
8	CTTTTCGA	0.0568
11	CGAACAAA	0.285
14	AGGGAGGC	-0.301
20	GTGGCCAC	-0.0584
21	ATGAGGTG	-0.235
22	TGGACACA	-0.0238
2	ACGATAAC	0.0512
5	TTTATAAA	0.348
6	AGTCGATG	-0.0896
8	CAGACCAC	-0.149
9	TACCGAGA	0.255
13	TTGAGCAA	0.0285
19	ATTATAAA	0.249

# (next part)

row,Sequence,PBM E-score
1,AGTGGAAC,-0.0214
2,AGGTCACT,-0.166
3,ACGGTAGG,-0.329
4,AGCGAACC,-0.0604
5,CTCAACCA,0.00025
6,CGACCCCA,-0.137
7,ACGGTTGG,-0.0688
8,ACCAGTAC,-0.114
9,ACTAGGCT,-0.109
10,CACGCACC,-0.066
11,CTGTCTGC,-0.122
12,CCTTCTAG,-0.237
13,AGGCTAGA,-0.153
14,ATTCGCTA,-0.0866
15,AAACCGTA,0.0356
16,AATCATCC,0.024
17,AGGGCGCC,-0.12
18,CATACGGC,0.058
19,GATATAGA,0.124
20,CTCATCAA,0.07
21,CGATAGCA,-0.114
22,ATGATCTA,0.0553
23,AATGAACG,-0.0978
24,AATACGAG,0.0402

row,Sequence,PBM E-score
1,AACCTACC,-0.134
2,AACCATCC,0.00041
3,CAGGCTCC,-0.18
4,AACAAAAT,0.0461
5,CAGCCCAC,-0.115
6,AGCTAGGG,-0.179
7,ACTCTCGA,-0.0924
8,ACAGTCCG,0.00379
9,ACCCTATG,-0.131
10,CGTATTAA,0.0867
11,GCGGGGCC,-0.00766
12,TATAAAGA,0.0956
13,CCCGGCCC,0.161
14,ACTAAGTC,-0.0184
15,ACTATCGC,-0.0823
16,CTTCTTAC,0.0607
17,AAAGCTGT,0.0157
18,GCCAATAA,0.0459
19,GCATGGCC,-0.224
20,GCCTTCCC,-0.218
21,TCGTACGA,0.0527
22,ATATAATC,0.142
